# Laboratory results taken from patent publication US11433068B2, “Treatment of cancers having alterations within the SWI/SNF chromatin remodeling complex” (THE GENERAL HOSPITAL CORPORATION, priority 2016, dated 2022).
# Test system: melanoma cells
# Assay: G9a inhibitors used in combination with HDAC, BRD or BRAF inhibitors
# Format: cell-based
# Settings: SAHA in combination with G9a inhibitors, used concurrently
# Excerpt: Histone deacetylases (HDAC) are enzymes that catalyze the removal of acetyl groups from lysine residues. This promotes a more condensed configuration of the chromatin structure, correlating with transcriptional silencing. HDAC inhibitors reverse this effect and are already FDA approved for use in the clinic. Two HDAC inhibitors, vorinostat (SAHA) and romidepsin are currently used in dermatology and oncology for treatment of cutaneous T cell lymphoma.
# Bromodomains (BRDs) refer to protein domains that recognize acetylated lysine residues and participate in epigenetic signal transduction. Members of the BRD family such as BRD4 have been implicated in oncogenic mechanisms, and several BRD inhibitors have been developed. Presently, the BRD inhibitor I-BET-762 is undergoing clinical trials for oncological applications.
# The role of BRAF in oncogenesis is well established, and multiple BRAF inhibitors are FDA-approved for advanced melanoma. BRAF is a serine/threonine-specific protein kinase that regulates the MAP kinase/ERK signaling pathway to control cell differentiation and proliferation. Many BRAF driver mutations have been identified to be important in human cancers, the most well-characterized of which is the BRAF (V600E) mutation.
smiles,measurement,value
"O=C(CCCCCCC(=O)Nc1ccccc1)NO [SAHA, suberoylanilide hydroxamic acid]",killing of melanoma cells,enhanced killing of melanoma cells
